Source: PubChem BioAssay AID504791 (Drosophila RNAi Screening Center, 2011)
Assay: 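Genes whose knock-down strengthens or weakens small-RNA reporter silencing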 (primary screen). Cells: Drosophila S2-derived reporter cells. Reagents: long dsRNA against Drosophila genes, about 150-250 ng dsRNA per well (siRNA assay); about 80-120 ng (miRNA assay). Duration: about 5 days (siRNA assay); about 4 days (miRNA assay). Challenge: copper sulfate induction of reporters: 25 µM (siRNA assay); 200 mM stated (miRNA assay), 1-2 days before reading. Measured: 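Per-well ratio of Renilla over firefly light, expressed relative to that plate's average ratio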. Active means: 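First-pass picks had plate-scaled ratios over 1.5 for the siRNA assay, over 1.6 for the miRNA assay, or under 0.6; two distinct dsRNAs had to score alike on retest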.
The deposit covers about 23,000 reagents; this is a random part of those with a known target gene and a result. Over the whole deposit, 199 (0.86%) are marked active. 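Plate-scaled ratios behind the calls are not deposited; printed light signals are raw; many rows marked increased or decreased are still called inactive.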 The numbers tell different reagents against one gene apart. Reagent sequences are not shown. Not given: the direction of the score.

Which result is listed for stops #1?
stable assay Renilla, run 1 (luminescence): 5403; stable assay firefly, run 1 (luminescence): 3.40e5; activity call: inactive

How did the screen score stops #2?
stable assay Renilla, run 1 (luminescence): 5619; stable assay firefly, run 1 (luminescence): 4.06e5; activity call: inactive

What is on record for stops #3?
stable assay Renilla, run 1 (luminescence): 6278; stable assay firefly, run 1 (luminescence): 4.08e5; activity call: inactive

With CG10904, what does the deposit list?
stable assay Renilla, run 1 (luminescence): 4928; stable assay firefly, run 1 (luminescence): 3.37e5; activity call: inactive

What is on record for bocks?
stable assay Renilla, run 1 (luminescence): 9605; stable assay firefly, run 1 (luminescence): 5.51e5; activity call: inactive

With Cks30A, what was measured?
stable assay Renilla, run 1 (luminescence): 5911; stable assay firefly, run 1 (luminescence): 5.85e5; activity call: inactive

Which result is listed for AstCC?
stable assay Renilla, run 1 (luminescence): 6816; stable assay firefly, run 1 (luminescence): 3.31e5; activity call: inactive

For CG13186, what was measured?
stable assay Renilla, run 1 (luminescence): 5143; stable assay firefly, run 1 (luminescence): 4.13e5; activity call: inactive

For CG32109, how do the results read?
stable assay Renilla, run 1 (luminescence): 6552; stable assay firefly, run 1 (luminescence): 4.13e5; activity call: inactive

For CG6893, how do the results read?
stable assay Renilla, run 1 (luminescence): 7327; stable assay firefly, run 1 (luminescence): 3.68e5; activity call: inactive

Which result is listed for CG3626?
stable assay Renilla, run 1 (luminescence): 5795; stable assay firefly, run 1 (luminescence): 3.33e5; activity call: inactive

With CG18585, what does the deposit list?
stable assay Renilla, run 1 (luminescence): 1.58e5; stable assay firefly, run 1 (luminescence): 2.56e5; activity call: inactive

For Plod #1, what was measured?
stable assay Renilla, run 1 (luminescence): 7643; stable assay firefly, run 1 (luminescence): 4.50e5; activity call: inactive

With Plod #2, what was measured?
stable assay Renilla, run 1 (luminescence): 5872; stable assay firefly, run 1 (luminescence): 3.11e5; activity call: inactive

What did the screen give for Tsf3?
stable assay Renilla, run 1 (luminescence): 7946; stable assay firefly, run 1 (luminescence): 2.84e5; activity call: inactive

What did the screen give for Dph3?
stable assay Renilla, run 1 (luminescence): 6514; stable assay firefly, run 1 (luminescence): 4.16e5; activity call: inactive

For CG10062 #1, what does the deposit list?
stable assay Renilla, run 1 (luminescence): 7711; stable assay firefly, run 1 (luminescence): 3.39e5; activity call: inactive

What is on record for CG10062 #2?
stable assay Renilla, run 1 (luminescence): 4535; stable assay firefly, run 1 (luminescence): 4.05e5; activity call: inactive

With CG12868, how do the results read?
stable assay Renilla, run 1 (luminescence): 7879; stable assay firefly, run 1 (luminescence): 4.86e5; activity call: inactive

With CG45067, what does the deposit list?
stable assay Renilla, run 1 (luminescence): 6138; stable assay firefly, run 1 (luminescence): 3.89e5; activity call: inactive

For CG10863, what does the deposit list?
miRNA reporter change: reporter ratio lowered past the hit cutoff; stable assay Renilla, run 1 (luminescence): 7854; stable assay firefly, run 1 (luminescence): 5.04e5; activity call: active

How did the screen score kek6?
stable assay Renilla, run 1 (luminescence): 6126; stable assay firefly, run 1 (luminescence): 3.71e5; activity call: inactive

For CG12343, what was measured?
stable assay Renilla, run 1 (luminescence): 7864; stable assay firefly, run 1 (luminescence): 3.38e5; activity call: inactive

What is on record for CG13950?
stable assay Renilla, run 1 (luminescence): 8174; stable assay firefly, run 1 (luminescence): 3.64e5; activity call: inactive

With Alg1, how do the results read?
stable assay Renilla, run 1 (luminescence): 8263; stable assay firefly, run 1 (luminescence): 3.42e5; activity call: inactive

What is on record for Ravus?
stable assay Renilla, run 1 (luminescence): 6958; stable assay firefly, run 1 (luminescence): 3.33e5; activity call: inactive

Which result is listed for CG9300?
stable assay Renilla, run 1 (luminescence): 7590; stable assay firefly, run 1 (luminescence): 4.05e5; activity call: inactive

How did the screen score CG5882?
stable assay Renilla, run 1 (luminescence): 6391; stable assay firefly, run 1 (luminescence): 3.27e5; activity call: inactive
